Test results taken from patent US20080248034A1.
Results are given in words; binding and its absence hold for the method and conditions named. Some binding calls cover weakened binding; strength is not graded here. Where a sequence is shown, tags or fusion partners need not be part of it.

Chains of the proteins cited; added tags and fusions are not shown. Lines headed by an entry give the natural chain unless they say otherwise; changes in a name come on top.
UniProt P02751: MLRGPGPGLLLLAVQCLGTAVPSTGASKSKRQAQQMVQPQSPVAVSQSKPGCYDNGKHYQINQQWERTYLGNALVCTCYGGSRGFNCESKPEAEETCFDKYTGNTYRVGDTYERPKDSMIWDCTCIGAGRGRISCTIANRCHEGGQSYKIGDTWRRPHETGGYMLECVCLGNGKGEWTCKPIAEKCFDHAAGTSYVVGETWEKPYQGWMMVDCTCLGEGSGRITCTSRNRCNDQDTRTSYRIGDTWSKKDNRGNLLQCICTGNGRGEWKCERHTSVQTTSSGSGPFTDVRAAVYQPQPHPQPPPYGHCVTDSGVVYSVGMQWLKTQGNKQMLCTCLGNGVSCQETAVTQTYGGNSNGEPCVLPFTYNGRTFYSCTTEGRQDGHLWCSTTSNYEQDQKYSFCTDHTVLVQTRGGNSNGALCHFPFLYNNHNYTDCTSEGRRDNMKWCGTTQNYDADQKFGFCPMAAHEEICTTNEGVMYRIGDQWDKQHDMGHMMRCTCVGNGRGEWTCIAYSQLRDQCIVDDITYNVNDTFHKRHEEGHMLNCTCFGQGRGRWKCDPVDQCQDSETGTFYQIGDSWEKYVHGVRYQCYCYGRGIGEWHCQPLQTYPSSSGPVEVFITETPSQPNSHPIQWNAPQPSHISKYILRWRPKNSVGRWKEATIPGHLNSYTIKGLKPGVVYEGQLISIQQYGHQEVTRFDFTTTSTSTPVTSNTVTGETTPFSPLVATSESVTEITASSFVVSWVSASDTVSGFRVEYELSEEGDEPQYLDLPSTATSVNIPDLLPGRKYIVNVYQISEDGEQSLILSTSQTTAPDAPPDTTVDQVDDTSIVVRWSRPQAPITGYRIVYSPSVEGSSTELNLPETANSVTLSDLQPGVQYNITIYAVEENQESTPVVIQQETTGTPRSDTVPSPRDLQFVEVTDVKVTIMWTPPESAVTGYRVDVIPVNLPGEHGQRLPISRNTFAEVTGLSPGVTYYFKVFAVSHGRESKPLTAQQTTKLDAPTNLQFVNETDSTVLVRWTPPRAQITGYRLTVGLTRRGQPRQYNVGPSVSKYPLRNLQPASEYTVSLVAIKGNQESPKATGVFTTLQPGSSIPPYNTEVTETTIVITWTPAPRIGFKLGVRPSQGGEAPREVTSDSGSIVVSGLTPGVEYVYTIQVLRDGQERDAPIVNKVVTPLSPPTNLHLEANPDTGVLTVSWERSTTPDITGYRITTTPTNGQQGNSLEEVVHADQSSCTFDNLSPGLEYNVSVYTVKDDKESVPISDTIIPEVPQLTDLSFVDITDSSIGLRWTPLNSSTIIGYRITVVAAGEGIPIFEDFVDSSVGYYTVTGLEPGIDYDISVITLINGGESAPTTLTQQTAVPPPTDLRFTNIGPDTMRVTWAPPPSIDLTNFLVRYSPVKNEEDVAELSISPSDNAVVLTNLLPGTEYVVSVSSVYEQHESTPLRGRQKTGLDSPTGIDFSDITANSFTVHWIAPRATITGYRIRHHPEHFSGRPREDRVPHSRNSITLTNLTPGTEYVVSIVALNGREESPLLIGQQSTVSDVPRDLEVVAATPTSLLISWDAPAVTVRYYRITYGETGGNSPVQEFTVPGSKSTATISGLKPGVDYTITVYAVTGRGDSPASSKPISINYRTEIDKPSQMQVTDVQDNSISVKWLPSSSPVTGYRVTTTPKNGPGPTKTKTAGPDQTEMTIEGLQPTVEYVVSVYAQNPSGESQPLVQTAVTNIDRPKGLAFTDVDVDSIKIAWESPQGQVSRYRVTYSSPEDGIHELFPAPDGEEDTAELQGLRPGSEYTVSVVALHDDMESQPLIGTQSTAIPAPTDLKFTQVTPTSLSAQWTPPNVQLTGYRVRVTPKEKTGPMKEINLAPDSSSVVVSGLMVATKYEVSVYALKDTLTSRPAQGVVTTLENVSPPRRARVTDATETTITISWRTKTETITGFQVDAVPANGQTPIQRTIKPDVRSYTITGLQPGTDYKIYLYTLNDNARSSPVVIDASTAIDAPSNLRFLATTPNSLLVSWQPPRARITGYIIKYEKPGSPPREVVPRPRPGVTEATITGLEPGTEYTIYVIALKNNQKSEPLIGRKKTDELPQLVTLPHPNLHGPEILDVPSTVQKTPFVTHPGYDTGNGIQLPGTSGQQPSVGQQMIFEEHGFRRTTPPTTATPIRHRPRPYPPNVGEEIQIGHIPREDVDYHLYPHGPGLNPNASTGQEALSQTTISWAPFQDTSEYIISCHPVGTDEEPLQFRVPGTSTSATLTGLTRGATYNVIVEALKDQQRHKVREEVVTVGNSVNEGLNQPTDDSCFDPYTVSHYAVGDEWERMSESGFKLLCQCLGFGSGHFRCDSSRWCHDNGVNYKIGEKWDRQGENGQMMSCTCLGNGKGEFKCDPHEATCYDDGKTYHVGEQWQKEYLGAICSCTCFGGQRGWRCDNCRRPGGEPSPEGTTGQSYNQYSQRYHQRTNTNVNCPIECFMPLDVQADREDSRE

Target: Fibronectin (FN), full length, purified from human plasma (human) (UniProt P02751)
Experiment: ELISA, FN-coated plate

B1: fusion protein containing the murine gamma heavy chain and only the lectin domain of endosialin (Fc fusion, UniProt Q9HCU0 18-156, looked up, not shown: a dimerising Fc or GST)
chain: QDPWAAEPRAACGPSSCYALFPRRRTFLEAWRACRELGGDLATPRTPEEAQRVDSLVGAGPASRLLWIGLQRQARQCQLQRPLRGFTWTTGDQDTAFTNWAQPASGGPCPAQRCVALEASGEHRWLEGSCTLAVDGYLC
Question: B1 was tested. Which binding did it give?
Answer: binds
